# Experimental data taken from paper PMC7819943, “Rice protein-binding microarrays: a tool to detect cis-acting elements near promoter regions in rice”.
# This is one part of the list.
# Target: T1, OsSMF1 (Oryza sativa, UniProt Q6ZLB0 1-436)
# T1 sequence: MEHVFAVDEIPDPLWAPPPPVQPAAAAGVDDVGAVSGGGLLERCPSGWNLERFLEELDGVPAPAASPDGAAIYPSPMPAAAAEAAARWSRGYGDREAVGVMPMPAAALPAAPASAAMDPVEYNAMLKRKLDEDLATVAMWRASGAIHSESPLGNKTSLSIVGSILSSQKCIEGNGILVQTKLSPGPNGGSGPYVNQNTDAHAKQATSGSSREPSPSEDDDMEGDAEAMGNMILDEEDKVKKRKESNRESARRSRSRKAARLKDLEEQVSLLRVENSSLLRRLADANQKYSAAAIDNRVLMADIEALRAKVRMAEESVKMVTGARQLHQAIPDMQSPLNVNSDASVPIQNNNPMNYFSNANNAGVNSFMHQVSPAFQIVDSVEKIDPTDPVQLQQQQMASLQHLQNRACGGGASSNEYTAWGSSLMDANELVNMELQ
# Assay: protein-binding microarray (RPBM); PBS, 2% BSA, 51.3 ng/ul salmon testes DNA, 50 uM zinc acetate, 200 nM TF, 25 C, 1 h; high values mean tight binding
# Details: protein: recombinant; tags: N-terminal polyhistidine and DsRed monomer fusion (pET32a); chain copies: 2; label: CyDye5-dUTP incorporated in the synthesized complementary strand; 3' TTTTT single-stranded linker to array surface; dsDNA, one strand shown
# In short: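 Per-feature fluorescence intensity (arbitrary units), read on an Axon 4000B scanner, is the binding signal. Transcription factors carrying an N-terminal polyhistidine tag and DsRed fusion were expressed in E. coli BL21-CodonPlus and purified on Ni–NTA. A custom Agilent array, made double-stranded by primer extension with Cy5-dUTP and blocked with 2% BSA, was incubated with 200 nM protein in PBS, 2% BSA, salmon testes DNA and 50 µM zinc acetate at 25 °C for 1 h and then washed.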
row,Sequence,binding signal
1,CCTCTTGCCACTACTATTTCTAGTAGTCGTGTATCATCATCGGAGTCACCTAGTGCAG,4340 fluorescence intensity (a.u.)
2,ACCGGGTCGCGCGCGTCGTTGAAACGTCACACCTAGCTAACGGAGTCACCTAGTGCAG,4280 fluorescence intensity (a.u.)
3,CCGGCCCAATACAACCCGTTCGTGGCAACCCTATTCCAGCCGGAGTCACCTAGTGCAG,4850 fluorescence intensity (a.u.)
4,CGATTGCCACATCTACACCTACGTATACAAATACACAAATCGGAGTCACCTAGTGCAG,5330 fluorescence intensity (a.u.)
5,GCGAACAGTGCACACGTCCGCCACTTCGTCCACTCGCGCCCGGAGTCACCTAGTGCAG,4700 fluorescence intensity (a.u.)
6,GAAACCCTAGCCGCCACCACTCCCGTGACGGTGCGTCGCTCGGAGTCACCTAGTGCAG,3650 fluorescence intensity (a.u.)
7,CATTAGGCCCACGTGTCATTGACCCAAGTCAGAGGTTAATCGGAGTCACCTAGTGCAG,9260 fluorescence intensity (a.u.)
8,GTATTTGTTGTCATCGTTTTCTTCGTGTCCTTTCATGATCCGGAGTCACCTAGTGCAG,4340 fluorescence intensity (a.u.)
9,ATAAATCGATTGCGCAACTGACGTACGGAACATATATATTCGGAGTCACCTAGTGCAG,7460 fluorescence intensity (a.u.)
10,TGTTGACACTTTGGTTTGTTGGTTGGTGACGCGTTGTTGTCGGAGTCACCTAGTGCAG,5460 fluorescence intensity (a.u.)
11,ATCCAAGTCGCCGTGGTCGTTTGGGCCTACGTGGGCTTAGCGGAGTCACCTAGTGCAG,4210 fluorescence intensity (a.u.)
12,TTGCACCAATCATGATTGCGCATCGCTGACCGAATGGTTTCGGAGTCACCTAGTGCAG,3940 fluorescence intensity (a.u.)
13,CTACGCCCACCCATCCACTCGCACCCCGCGCCGCACCAACCGGAGTCACCTAGTGCAG,24500 fluorescence intensity (a.u.)
14,CTTTTGATCCACGTTTGAACTATATATTCACATAATACAACGGAGTCACCTAGTGCAG,3410 fluorescence intensity (a.u.)
15,GTTCGCCATTGCCACCTCACTGCTCACGCTACCGCCTCTACGGAGTCACCTAGTGCAG,5080 fluorescence intensity (a.u.)
16,AAATTGGGTGCCATGTCAGTAATTTTATGATGTGGCATGACGGAGTCACCTAGTGCAG,14200 fluorescence intensity (a.u.)
17,CGCAGATTCCTCCCTCCGTCGATCGCCCCTTCATCACCCACGGAGTCACCTAGTGCAG,3280 fluorescence intensity (a.u.)
18,CGCCCCGCTGCTCGTCGAGCAAAACGTCTCGCCCTCTCCACGGAGTCACCTAGTGCAG,5540 fluorescence intensity (a.u.)
19,TGTTTATGAAGTGACATGTCACATATTAATCTATCATACTCGGAGTCACCTAGTGCAG,3900 fluorescence intensity (a.u.)
20,CACGAGCACGACACGACACGTTATCCATCCCGCCGCCGAACGGAGTCACCTAGTGCAG,4650 fluorescence intensity (a.u.)
21,TCGCCGATGGCCACGGCCACTACCCACCAGTCGTCATCATCGGAGTCACCTAGTGCAG,4710 fluorescence intensity (a.u.)

row,Sequence,binding signal
1,CCGCCACGTAGGTACCACGTCAACGCCACGTGTAACAAAGCGGAGTCACCTAGTGCAG,37100 fluorescence intensity (a.u.)
2,CAAGTTGTTTAGGGCTCTTTTGGAACGCATGATTCTGAAACGGAGTCACCTAGTGCAG,7240 fluorescence intensity (a.u.)
3,CTCCATCACTGCGCCACATGCAGCCTGCCGTTTCGAAAACCGGAGTCACCTAGTGCAG,3280 fluorescence intensity (a.u.)
4,TTTACAAATTTTGTAAGGTGACGCTGACACATGAAACCAACGGAGTCACCTAGTGCAG,5790 fluorescence intensity (a.u.)
5,GCCACCTAAGCGACACGTCGACGACACGTGGGACGAAGACCGGAGTCACCTAGTGCAG,20600 fluorescence intensity (a.u.)
6,TCCATCAATGCAACTAACGGACGTGTCCTCTCTCGTCCACCGGAGTCACCTAGTGCAG,4180 fluorescence intensity (a.u.)
7,GTTGTTAGTGTATGTGTAAGCCAAATTAATCATATTGAACCGGAGTCACCTAGTGCAG,3240 fluorescence intensity (a.u.)
8,CACGACCATCTCGGCACACGTCGCCTTCCACCTTATCGTCCGGAGTCACCTAGTGCAG,3530 fluorescence intensity (a.u.)
9,TAAACGTTGTCCTACGTGGCGACTGACACATCGGTCCCACCGGAGTCACCTAGTGCAG,21600 fluorescence intensity (a.u.)
10,TTGCCGTGCACCCGGCACGCCCACGTAGGCCGGAGCCGCCCGGAGTCACCTAGTGCAG,3680 fluorescence intensity (a.u.)
11,CCGGCCGGTGACATGGGCGTTGCTCCTACTGCCACTTCGGCGGAGTCACCTAGTGCAG,4290 fluorescence intensity (a.u.)
12,AATCCAGTTTCCATTCACTCAGCTGGTCATATTCTATGTTCGGAGTCACCTAGTGCAG,3340 fluorescence intensity (a.u.)
13,CCAATCCTTTAAAATTCCTATGGAATGGGTAATCCTATGCCGGAGTCACCTAGTGCAG,3680 fluorescence intensity (a.u.)
14,ACGTAATTATAATTTATTTTGTTATGAGTTGGTTTATCACCGGAGTCACCTAGTGCAG,30400 fluorescence intensity (a.u.)
15,GGTGTTTTAGCTTTGAGTCAACTTGTTTTAAGTTTGATCACGGAGTCACCTAGTGCAG,3670 fluorescence intensity (a.u.)
16,TCAGCTTATGTCGCGTACGTCGTACGTGTCCAGTTCGGAGCGGAGTCACCTAGTGCAG,7800 fluorescence intensity (a.u.)
17,TCTCAACTACTCATAAATGACAGACATTTCTGACAAGCTACGGAGTCACCTAGTGCAG,38200 fluorescence intensity (a.u.)
18,GAGTCTGACAACACGATCCCAATGTTTGCACATGGATTTGCGGAGTCACCTAGTGCAG,3290 fluorescence intensity (a.u.)
19,CGGTCGCCTCCTTTGCCCAATCACTCCTCATTCGAACACGCGGAGTCACCTAGTGCAG,3280 fluorescence intensity (a.u.)
20,TCAAGGACTGCAACTACTAAATGGACAACACTAGGTTTGACGGAGTCACCTAGTGCAG,3420 fluorescence intensity (a.u.)
21,TGATCCTCAGCTTCCACGTGGACGTACAAGATCACCTCCCCGGAGTCACCTAGTGCAG,17700 fluorescence intensity (a.u.)

# Part of the list above in another layout:
row	Sequence	binding signal
5	GCGAACAGTGCACACGTCCGCCACTTCGTCCACTCGCGCCCGGAGTCACCTAGTGCAG	4700 fluorescence intensity (a.u.)
6	GAAACCCTAGCCGCCACCACTCCCGTGACGGTGCGTCGCTCGGAGTCACCTAGTGCAG	3650 fluorescence intensity (a.u.)
7	CATTAGGCCCACGTGTCATTGACCCAAGTCAGAGGTTAATCGGAGTCACCTAGTGCAG	9260 fluorescence intensity (a.u.)
8	GTATTTGTTGTCATCGTTTTCTTCGTGTCCTTTCATGATCCGGAGTCACCTAGTGCAG	4340 fluorescence intensity (a.u.)
9	ATAAATCGATTGCGCAACTGACGTACGGAACATATATATTCGGAGTCACCTAGTGCAG	7460 fluorescence intensity (a.u.)
10	TGTTGACACTTTGGTTTGTTGGTTGGTGACGCGTTGTTGTCGGAGTCACCTAGTGCAG	5460 fluorescence intensity (a.u.)
11	ATCCAAGTCGCCGTGGTCGTTTGGGCCTACGTGGGCTTAGCGGAGTCACCTAGTGCAG	4210 fluorescence intensity (a.u.)
12	TTGCACCAATCATGATTGCGCATCGCTGACCGAATGGTTTCGGAGTCACCTAGTGCAG	3940 fluorescence intensity (a.u.)
13	CTACGCCCACCCATCCACTCGCACCCCGCGCCGCACCAACCGGAGTCACCTAGTGCAG	24500 fluorescence intensity (a.u.)
14	CTTTTGATCCACGTTTGAACTATATATTCACATAATACAACGGAGTCACCTAGTGCAG	3410 fluorescence intensity (a.u.)
15	GTTCGCCATTGCCACCTCACTGCTCACGCTACCGCCTCTACGGAGTCACCTAGTGCAG	5080 fluorescence intensity (a.u.)
16	AAATTGGGTGCCATGTCAGTAATTTTATGATGTGGCATGACGGAGTCACCTAGTGCAG	14200 fluorescence intensity (a.u.)
